Here are results for one molecule from PMC6457570.

The chains behind the UniProt entries cited, without tags or fusion partners.
UniProt Q91DS3: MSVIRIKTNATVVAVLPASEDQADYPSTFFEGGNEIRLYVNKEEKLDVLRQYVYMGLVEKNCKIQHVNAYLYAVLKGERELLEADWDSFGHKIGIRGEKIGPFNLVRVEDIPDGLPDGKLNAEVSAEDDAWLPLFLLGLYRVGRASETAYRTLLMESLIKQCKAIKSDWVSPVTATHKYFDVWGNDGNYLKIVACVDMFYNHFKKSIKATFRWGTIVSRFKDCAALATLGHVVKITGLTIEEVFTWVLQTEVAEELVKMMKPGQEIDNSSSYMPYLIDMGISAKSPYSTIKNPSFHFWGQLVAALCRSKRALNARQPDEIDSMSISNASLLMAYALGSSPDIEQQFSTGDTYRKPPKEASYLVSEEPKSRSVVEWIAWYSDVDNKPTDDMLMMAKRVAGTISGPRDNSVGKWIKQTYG

The target in test [1] is SVCV N protein with Flag tag (N-Flag) (spring viraemia of carp virus (SVCV)) (UniProt Q91DS3). Nature of the test: co-IP; HEK 293T cells co-transfected (5 ug each plasmid), lysed after 24 h in RIPA buffer (1% NP-40, 50 mM Tris-HCl pH 7.5, 150 mM NaCl, 1 mM EDTA, 0.25% sodium deoxycholate); IP with anti-Flag affinity gel overnight at 4°C; immunoblot with anti-Myc. (In general: In western blotting, separated proteins are transferred to a membrane and probed.)

Test [2] concerns the target T1, SVCV P protein with Flag tag (P-Flag) (spring viraemia of carp virus (SVCV)) (UniProt Q91DS2).
T1 sequence: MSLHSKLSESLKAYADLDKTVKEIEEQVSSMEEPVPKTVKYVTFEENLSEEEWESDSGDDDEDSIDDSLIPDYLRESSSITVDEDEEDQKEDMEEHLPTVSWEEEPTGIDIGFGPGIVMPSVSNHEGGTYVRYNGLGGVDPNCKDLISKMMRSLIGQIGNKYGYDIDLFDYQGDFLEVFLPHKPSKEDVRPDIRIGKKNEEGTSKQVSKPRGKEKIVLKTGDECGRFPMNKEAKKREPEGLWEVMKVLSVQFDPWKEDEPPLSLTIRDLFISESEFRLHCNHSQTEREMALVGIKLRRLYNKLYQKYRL
Described as above.

These are yes or no findings as the source states them, for the method shown. In cells and extracts the contact can be indirect. Some binding calls cover weakened binding; strength is not graded here. Sequences can lack the tags named with a protein.

B1: zebrafish p53 with a Myc tag (p53-Myc) (protein, UniProt P79734 1-373)
chain: MAQNDSQEFAELWEKNLIIQPPGGGSCWDIINDEEYLPGSFDPNFFENVLEEQPQPSTLPPTSTVPETSDYPGDHGFRLRFPQSGTAKSVTCTYSPDLNKLFCQLAKTCPVQMVVDVAPPQGSVVRATAIYKKSEHVAEVVRRCPHHERTPDGDNLAPAGHLIRVEGNQRANYREDNITLRHSVFVPYEAPQLGAEWTTVLLNYMCNSSCMGGMNRRPILTIITLETQEGQLLGRRSFEVRVCACPGRDRKTEESNFKKDQETKTMAKTTTGTKRSLVKESSSATLRPEGSKKAKGSSSDEEIFTLQVRGRERYEILKKLNDSLELSDVVPASDAEKYRQKFMTKNKKENRESSEPKQGKKLMVKDEGRSDSD
Regarding B1, the binding result in test [1] and in test [2] was “binds” in each case.
